Drawing on paper PMC7862247, this text covers binding for two substances.

By UniProt entry, the sequences of proteins in these tests, tags left out.
UniProt Q9WTL8: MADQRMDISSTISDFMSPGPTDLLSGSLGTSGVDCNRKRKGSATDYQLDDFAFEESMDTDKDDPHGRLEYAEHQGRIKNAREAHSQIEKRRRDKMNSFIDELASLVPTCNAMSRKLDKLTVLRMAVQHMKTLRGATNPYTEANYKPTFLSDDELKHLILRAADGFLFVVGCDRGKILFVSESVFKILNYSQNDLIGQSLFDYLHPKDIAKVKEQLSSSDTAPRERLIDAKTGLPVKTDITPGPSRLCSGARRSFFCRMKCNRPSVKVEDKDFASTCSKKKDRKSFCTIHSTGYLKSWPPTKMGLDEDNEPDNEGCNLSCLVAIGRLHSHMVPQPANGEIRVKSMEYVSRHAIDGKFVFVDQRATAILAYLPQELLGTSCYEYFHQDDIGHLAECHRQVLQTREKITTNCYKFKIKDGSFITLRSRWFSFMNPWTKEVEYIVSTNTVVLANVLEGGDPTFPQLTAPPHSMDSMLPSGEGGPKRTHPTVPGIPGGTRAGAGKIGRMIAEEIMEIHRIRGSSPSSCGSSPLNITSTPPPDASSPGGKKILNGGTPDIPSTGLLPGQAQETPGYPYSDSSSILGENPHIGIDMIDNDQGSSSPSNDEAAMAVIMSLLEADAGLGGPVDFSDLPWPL
UniProt O00327: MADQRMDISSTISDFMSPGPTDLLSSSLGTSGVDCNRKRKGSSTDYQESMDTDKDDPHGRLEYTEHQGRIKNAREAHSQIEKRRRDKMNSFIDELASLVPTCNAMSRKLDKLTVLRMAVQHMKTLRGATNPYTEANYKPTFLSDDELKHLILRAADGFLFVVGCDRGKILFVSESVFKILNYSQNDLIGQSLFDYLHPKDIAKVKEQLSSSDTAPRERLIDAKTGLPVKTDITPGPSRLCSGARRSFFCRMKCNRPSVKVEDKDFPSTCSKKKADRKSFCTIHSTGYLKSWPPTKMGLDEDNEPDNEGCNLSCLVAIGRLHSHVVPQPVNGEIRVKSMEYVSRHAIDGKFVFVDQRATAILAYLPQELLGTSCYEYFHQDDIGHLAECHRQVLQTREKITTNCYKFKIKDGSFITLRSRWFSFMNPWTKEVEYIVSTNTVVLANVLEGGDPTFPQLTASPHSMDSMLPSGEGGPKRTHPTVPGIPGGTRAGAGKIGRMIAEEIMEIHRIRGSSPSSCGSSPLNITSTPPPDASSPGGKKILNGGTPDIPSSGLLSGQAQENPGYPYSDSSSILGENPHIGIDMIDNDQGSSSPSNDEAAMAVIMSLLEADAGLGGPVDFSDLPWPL

In test [1] the target is T1, DISC1, endogenous (mouse) (mouse (endogenous in MEFs and mouse brain)) (UniProt Q811T9).
T1 sequence: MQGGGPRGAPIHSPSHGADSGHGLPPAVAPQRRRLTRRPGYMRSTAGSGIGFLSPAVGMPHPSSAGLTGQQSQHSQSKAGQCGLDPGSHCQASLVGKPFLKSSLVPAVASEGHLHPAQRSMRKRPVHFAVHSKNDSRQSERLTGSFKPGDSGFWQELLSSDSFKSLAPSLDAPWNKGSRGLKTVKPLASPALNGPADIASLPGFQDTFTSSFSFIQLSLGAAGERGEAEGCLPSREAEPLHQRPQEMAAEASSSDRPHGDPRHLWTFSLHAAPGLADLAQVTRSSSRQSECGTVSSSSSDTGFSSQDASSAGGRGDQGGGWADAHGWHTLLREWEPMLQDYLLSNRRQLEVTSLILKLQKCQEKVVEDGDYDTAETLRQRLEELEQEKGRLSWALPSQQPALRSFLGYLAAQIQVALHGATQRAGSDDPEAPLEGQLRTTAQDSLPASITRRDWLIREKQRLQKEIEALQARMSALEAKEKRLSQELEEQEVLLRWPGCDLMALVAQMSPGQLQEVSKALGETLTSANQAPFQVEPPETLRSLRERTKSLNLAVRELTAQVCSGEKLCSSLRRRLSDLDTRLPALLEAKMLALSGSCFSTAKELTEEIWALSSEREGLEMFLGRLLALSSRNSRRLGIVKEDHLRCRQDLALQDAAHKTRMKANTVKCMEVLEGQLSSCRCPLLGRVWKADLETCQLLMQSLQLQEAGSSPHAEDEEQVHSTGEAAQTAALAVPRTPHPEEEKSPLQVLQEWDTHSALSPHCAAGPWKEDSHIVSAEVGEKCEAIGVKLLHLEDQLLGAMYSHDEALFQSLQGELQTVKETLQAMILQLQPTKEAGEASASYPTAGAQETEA
As to the kind of experiment: co-IP; endogenous proteins in MEF lysate; Nonidet P-40 buffer, Protein A beads, 4 °C, immunoblot; precipitating antibody not given. On the technique in general: Immunoblotting shows a protein as a band on a membrane.

Test [2] deals with T1, DISC1, endogenous (mouse) (mouse (endogenous in MEFs and mouse brain)). Kind of test: co-IP; endogenous proteins in mouse brain lysate (homogenised in Nonidet P-40 buffer), Protein A beads, 4 °C, immunoblot; precipitating antibody not given.
Test [3] concerns the target T2, Flag-DISC1 (human Disrupted-in-schizophrenia 1) (human) (UniProt Q9NRI5).
T2 sequence: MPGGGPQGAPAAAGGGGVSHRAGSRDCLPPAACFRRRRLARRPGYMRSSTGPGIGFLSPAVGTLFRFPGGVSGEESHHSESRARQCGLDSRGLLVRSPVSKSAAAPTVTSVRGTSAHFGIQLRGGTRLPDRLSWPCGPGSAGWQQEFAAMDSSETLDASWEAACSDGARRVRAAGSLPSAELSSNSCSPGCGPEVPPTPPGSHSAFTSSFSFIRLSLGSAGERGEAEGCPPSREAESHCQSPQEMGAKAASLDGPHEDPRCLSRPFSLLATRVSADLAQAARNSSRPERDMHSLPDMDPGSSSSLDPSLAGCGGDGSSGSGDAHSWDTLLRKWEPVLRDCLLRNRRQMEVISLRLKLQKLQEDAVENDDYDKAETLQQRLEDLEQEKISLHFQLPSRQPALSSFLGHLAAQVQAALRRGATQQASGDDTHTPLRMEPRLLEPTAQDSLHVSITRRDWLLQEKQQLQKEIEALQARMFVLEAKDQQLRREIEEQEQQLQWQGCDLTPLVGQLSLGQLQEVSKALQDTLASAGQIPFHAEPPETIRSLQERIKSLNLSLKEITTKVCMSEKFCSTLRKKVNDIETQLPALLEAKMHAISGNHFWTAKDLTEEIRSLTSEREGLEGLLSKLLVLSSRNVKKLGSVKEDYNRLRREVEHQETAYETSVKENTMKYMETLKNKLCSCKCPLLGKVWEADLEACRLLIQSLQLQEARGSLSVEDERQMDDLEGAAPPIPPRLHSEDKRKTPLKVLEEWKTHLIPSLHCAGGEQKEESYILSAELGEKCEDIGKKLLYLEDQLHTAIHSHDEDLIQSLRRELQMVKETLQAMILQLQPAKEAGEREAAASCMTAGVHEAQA
As to the kind of experiment: co-IP; Flag-DISC1 and GFP-BMAL1 transfected in HEK293 cells, precipitated with Flag-DISC1; Nonidet P-40 buffer (50 mM Tris-Cl pH 8.0, 150 mM NaCl, 1% NP40, 5 mM EDTA), Protein A beads, 4 °C, immunoblot.

Results are given in words; binding and its absence hold for the method and conditions named. Binding seen in cells or lysates may run through a third protein. Some binding calls cover weakened binding; strength is not graded here. For part of these data: Where a sequence is shown, tags or fusion partners need not be part of it.

On to “BMAL1, endogenous (mouse) (from UniProt Q9WTL8 1-632)”, for which the binding entry in test [1] and in test [2] was “binds” in each case.

As to “GFP-BMAL1 (human Brain and muscle Arnt-like protein-1) (from UniProt O00327 1-626)”, the binding result in test [3] is recorded as “binds”.
